Taken from: PubChem BioAssay AID1259308 (NCATS, 2017)
Here is one part, drawn at random, of about 59,000 reagents. About 1,510 of them (2.6%) count as active. 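Calls use total luciferase alone and ignore viability, so some active siRNAs may act by altering cell number.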 The numbers tell different reagents against one gene apart. Not all columns of the deposit are shown.

Screen: 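Genes whose loss raises luciferase production in HEK293 cells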 (primary screen)
Cell system: human HEK293 embryonic kidney cells stably expressing firefly luciferase (HEK-CMV-Luc2-Hygro)
Reagent: single siRNA against human genes, 0.8 pmol siRNA per well
Duration: 72 h
Measurement: 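Reporter luminescence and viable-cell signal on separate replicate plates, given as percent of non-targeting control and median/MAD z-scores, plus per-cell luciferase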
Direction: total luciferase, z-score and total luciferase, % of control: higher = more reporter protein produced
Rule for the call: 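Active when the median/MAD z-score for overall luciferase is greater than 3; a gene was taken forward for validation with new siRNAs if at least two of its three siRNAs passed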
Meaning of the calls: active = raised luciferase; inactive = no rise

no.	gene knocked down	reagent no.	total luciferase, z-score	total luciferase, % of control	Outcome
1	CD99L2 (CD99 molecule like 2)	1	0.872	99.2	inactive
2	CD99L2 (CD99 molecule like 2)	2	-1.5	52	inactive
3	CD99L2 (CD99 molecule like 2)	3	-0.598	70	inactive
4	MCIDAS	1	0.351	88.9	inactive
5	MCIDAS	2	-0.0706	80.5	inactive
6	MCIDAS	3	0.378	89.4	inactive
7	ELOVL3 (ELOVL fatty acid elongase 3)	1	0.263	87.1	inactive
8	ELOVL3 (ELOVL fatty acid elongase 3)	2	-0.601	69.9	inactive
9	ELOVL3 (ELOVL fatty acid elongase 3)	3	2.25	127	inactive
10	PDE12 (phosphodiesterase 12)	1	-0.27	76.5	inactive
11	PDE12 (phosphodiesterase 12)	2	0.587	93.6	inactive
12	PDE12 (phosphodiesterase 12)	3	-1.77	46.6	inactive
13	RPL15P3 (ribosomal protein L15 pseudogene 3)	1	-2.74	27.4	inactive
14	RPL15P3 (ribosomal protein L15 pseudogene 3)	2	-2.86	25	inactive
15	RPL15P3 (ribosomal protein L15 pseudogene 3)	3	-2.7	28.3	inactive

Next part, starting with the last 3 of the part before.
no.	gene knocked down	reagent no.	total luciferase, z-score	total luciferase, % of control	Outcome
13	RPL15P3 (ribosomal protein L15 pseudogene 3)	1	-2.74	27.4	inactive
14	RPL15P3 (ribosomal protein L15 pseudogene 3)	2	-2.86	25	inactive
15	RPL15P3 (ribosomal protein L15 pseudogene 3)	3	-2.7	28.3	inactive
16	ORAI1 (ORAI calcium release-activated calcium modulator 1)	1	-0.237	77.2	inactive
17	ORAI1 (ORAI calcium release-activated calcium modulator 1)	2	0.905	99.9	inactive
18	ORAI1 (ORAI calcium release-activated calcium modulator 1)	3	-0.0429	81	inactive
19	FOXH1 (forkhead box H1)	1	-0.0113	81.7	inactive
20	FOXH1 (forkhead box H1)	2	0.724	96.3	inactive
21	FOXH1 (forkhead box H1)	3	0.689	95.6	inactive
22	MTMR7 (myotubularin related protein 7)	1	0.0989	83.9	inactive
23	MTMR7 (myotubularin related protein 7)	2	0.115	84.2	inactive
24	MTMR7 (myotubularin related protein 7)	3	-0.435	73.2	inactive
